Source: doi:10.1101/2020.08.12.248419
No constants are given. Whether binding was seen depends on the method and setting. For part of these data: A result given as binding can be weak or reduced; the word gives no strength. Tags and fused reporters may be left off the sequences shown. Each block holds one molecule with its values, some of them ahead of it.

What was measured:
[1] = target: T1, AtPIP5K2 bait protein (fusion to an N-terminal OST4 membrane anchor, in pBT3-C-OST4) (Arabidopsis thaliana) (UniProt Q8L796); assay: two-hybrid
T1 sequence: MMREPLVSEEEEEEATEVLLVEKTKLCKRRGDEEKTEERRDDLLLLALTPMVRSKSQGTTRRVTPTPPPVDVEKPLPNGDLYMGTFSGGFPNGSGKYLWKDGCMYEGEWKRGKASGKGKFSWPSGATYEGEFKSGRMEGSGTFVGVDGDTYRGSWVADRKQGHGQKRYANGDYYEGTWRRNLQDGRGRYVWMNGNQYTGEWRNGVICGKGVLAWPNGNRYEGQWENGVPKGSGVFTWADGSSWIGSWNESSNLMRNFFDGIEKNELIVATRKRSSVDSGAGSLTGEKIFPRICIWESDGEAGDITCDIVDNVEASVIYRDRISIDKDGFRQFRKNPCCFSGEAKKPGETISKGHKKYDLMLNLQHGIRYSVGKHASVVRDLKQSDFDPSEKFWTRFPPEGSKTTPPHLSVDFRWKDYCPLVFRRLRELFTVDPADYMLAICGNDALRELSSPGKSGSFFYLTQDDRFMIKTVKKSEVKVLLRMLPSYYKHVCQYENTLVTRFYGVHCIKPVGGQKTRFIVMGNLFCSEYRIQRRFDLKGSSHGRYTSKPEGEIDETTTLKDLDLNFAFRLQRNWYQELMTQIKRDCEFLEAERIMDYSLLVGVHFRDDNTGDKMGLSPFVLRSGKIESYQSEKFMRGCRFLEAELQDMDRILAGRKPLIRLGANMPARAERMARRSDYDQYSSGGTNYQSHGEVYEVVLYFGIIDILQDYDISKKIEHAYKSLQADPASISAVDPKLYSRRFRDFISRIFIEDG

[2] = target: GST-NtRac5 (tobacco) (UniProt Q9S820); assay: pull-down
[3] = target: GST protein alone; assay: pull-down

- binding [1]: binds
Molecule: NtRac5 prey protein (in pPR3-N) (tobacco)

- binding [2]: binds
- binding [3]: no binding
B1: MBP-AtPIP5K2 (enzyme, UniProt Q8L796 1-754)
chain: T1 sequence
